In article PMC12901311, “HEXIM1 inter-monomer autoinhibition governs 7SK RNA binding specificity and P-TEFb inactivation” (Nature Communications, 2024):
These are yes or no findings as the source states them, for the method shown.

Molecular target: Hexim1 BR-L-AR(S183C-MTSL) (human, UniProt O94992 142-253, S183C)
Test: condition: only with SL1-dI RNA (1:1.2 protein:RNA ratio); paramagnetic relaxation enhancement (PRE) NMR; total interaction experiment on 15N BR-L-AR(S183C^MTSL) in the presence of SL1-dI RNA (1:1.2 protein:RNA ratio); both purified

binding: no binding
B1: Hexim1 BR-L-AR(S183C^MTSL) (domain or fragment, human)
chain: GGQQQRQLGKKKHRRRPSKKKRHWKPYYKLTWEEKKKFDEKQCLRASRIRAEMFAKGQPVAPYNTTQFLMDDHDQEEPDLKTGLYSKRAAAKSDDTSDDDFMEEGGEEDGGSD
modifications: MTSL nitroxide spin label on C183
notes: non-native glycine that remains at the N-terminus of BR-L-AR after TEV protease cleavage; Hexim1, human, residues 142-253 (BR-L-AR) with S183C; 15N-labelled; not shown: His6, N-terminal, cleaved; MBP, N-terminal, cleaved
